# In PubChem BioAssay AID1487 (National Center for Advancing Translational Sciences (NCATS), 2009):
# The list shows a part of the results. Further columns of the screen follow, without active or inactive calls. Compounds called inactive in the main read-out are mostly missing here. The note in brackets gives the kind of curve behind each potency; many fits are weak.
# Test: qHTS Assay for Modulators of Lamin A Splicing
# Conditions: HeLa LMNA splicing GFP/RFP minigene ratio, 48 h
# Summary of the method: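 Read-out is the ratio of GFP to DsRed2 object intensity, acquired by 488 nm laser-scanning cytometry on HeLa lamin A-EGFP minigene reporter cells. Compound incubation 48 hrs at 37 °C in Opti-MEM with 2% FBS; DMSO 0.5% final.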
# [1] = measured here: RFP viability control channel
# [2] = measured here: GFP splicing reporter channel
SMILES,AC50 [1],AC50 [2]
Cc1ccc(NC(=S)Nc2ccc(Cl)c(Cl)c2)c(OC(F)F)c1,"20 µM [rising, single point]",–
CC(C)c1ccc(NC(=O)CCCN2C(=S)NC(C)(C)CC2C)cc1 (centres undefined),"0.158 µM [rising, full curve, poor fit]",–
CSc1ccc(/C=C/C(=O)NC(=O)c2ccccc2O)cc1,"35.5 µM [rising, single point]",–
CC1CC(C)CN(CCCNC(=O)Cn2ncn3cccc3c2=O)C1 (centres undefined),"0.0158 µM [falling, full curve, poor fit]",–
C/C(Cl)=C\Cn1c(O)c(N=NC(N)=S)c2ccccc21,"31.6 µM [falling, partial curve]","7.94 µM [falling, partial curve, poor fit]"
COc1cccc(CNC(=O)C2=C(C)C(=O)OC23CCN(C(C)=O)CC3)c1OC,"35.5 µM [falling, single point]",–
Cn1cc(CN2CCN(Cc3ccccc3)C(CCO)C2)c(-c2ccccc2)n1 (centres undefined),"4.47 µM [rising, partial curve]","3.98 µM [rising, full curve, poor fit]"
Cc1c(C(=O)NCc2cccnc2)oc2ccc(S(=O)(=O)N3CCCCC3)cc12,"12.6 µM [rising, partial curve]",–
CC(=O)c1ccc(NC(=O)CN2C(=O)CN(C)C(=O)c3ccccc32)cc1,"2.51 µM [falling, partial curve, poor fit]","20 µM [falling, partial curve, poor fit]"
COc1cccc(N/C(SCc2ccccc2F)=C(/C#N)C(=O)NCc2cccs2)c1,–,"14.1 µM [rising, single point]"
CCNS(=O)(=O)c1ccc(NC(=O)CC(C)c2ccccc2)cc1 (centres undefined),"0.0794 µM [falling, full curve, poor fit]","0.0891 µM [falling, full curve, poor fit]"
Cc1nn(C)c(C(=O)Nc2ccc(Cl)c([N+](=O)[O-])c2)c1Cl,–,"20 µM [rising, single point]"
CC1(C)C2CCC1(C)C(OCC[N+](C)(C)CC(=O)OC1CCCCC1)C2 (centres undefined),"35.5 µM [rising, partial curve, poor fit]",–
Cc1ccc(-n2c(SCC(=O)NCc3ccco3)nc3c(sc4ccccc43)c2=O)cc1,"0.02 µM [falling, full curve, poor fit]",–
COc1ccccc1N/C=C(\C#N)c1nc2ccccc2[nH]1,"0.0794 µM [falling, full curve]",–
CCc1ccc2nc(N(CCN(CC)CC)C(=O)c3cccs3)sc2c1,"0.0316 µM [falling, full curve]",–
N#Cc1ccsc1NC(=O)CN(Cc1ccccc1)Cc1ccccc1,"35.5 µM [rising, single point]","35.5 µM [rising, single point]"
CCOc1ccccc1CNC(=O)CCc1c(C)nn(-c2ccc(N3CCCC3)nn2)c1C,"0.00316 µM [falling, full curve, poor fit]","0.00316 µM [falling, full curve, poor fit]"

SMILES,AC50 [1],AC50 [2]
COc1ccccc1CNC(=O)Cn1c(=O)nc(-c2ccccc2F)c2cc(Cl)ccc21,–,"14.1 µM [falling, single point]"
CCSC1(SCC)N=C(N)C2(C#N)C(c3ccccc3)NC(C)=CC12C#N (centres undefined),–,"0.0562 µM [falling, full curve, poor fit]"
Cc1ccc(Cn2cccc(-c3nc4ccccc4s3)c2=O)cc1,"7.08 µM [rising, full curve, poor fit]",–
O=C(CCCCl)NC(=S)Nc1cc(C(F)(F)F)ccc1N1CCOCC1,"35.5 µM [rising, single point]","20 µM [rising, single point]"
CSc1nc2nccc(/C=C\c3ccccc3)n2n1,"35.5 µM [falling, single point]","31.6 µM [falling, single point]"
Cc1ccc(C(C)C)c(OCc2ccc(C(=O)N/N=C/c3ccc(O)cc3O)cc2)c1,"12.6 µM [rising, partial curve]","14.1 µM [rising, single point]"
Nc1nc2c(ncn2COC(CO)CO)c(=O)[nH]1,"3.16 µM [falling, single point]","10 µM [falling, partial curve, poor fit]"
Cn1nc(CC(=O)NCc2ccc(C(F)(F)F)cc2)c2ccccc2c1=O,"7.94 µM [rising, partial curve]",–
CC(=O)N1CCc2cc(S(=O)(=O)NCCC(=O)N3CCc4ccccc4C3)ccc21,"22.4 µM [rising, single point]","17.8 µM [rising, single point]"
O=C(CCCNS(=O)(=O)c1ccc(Br)cc1)N1CC[C@@]2(O)CCCC[C@H]2C1,"4.47 µM [rising, partial curve, poor fit]",–
CC12C(=O)OC(=O)C1(C)C1CCC2O1 (centres undefined),"2.24 µM [falling, full curve]","2.51 µM [falling, full curve]"
CCOc1ccc(N2C(=O)CNC2=S)cc1,–,"10 µM [rising, partial curve, poor fit]"
Cc1c(C(=O)Nc2cccc(C(F)(F)F)c2)sc2nc[nH]c(=O)c12,–,"0.355 µM [falling, full curve, poor fit]"
Cc1cccc(N2CCN(C(=O)CSc3ccsc3[N+](=O)[O-])CC2C)c1 (centres undefined),"25.1 µM [rising, single point]","35.5 µM [rising, single point]"
O=C(COC(=O)/C=C/c1ccccc1)NCc1ccc(Cl)cc1,"17.8 µM [falling, single point]",–
C[C@H](C(=O)O)c1cccc(Oc2ccccc2)c1,–,"0.0562 µM [falling, full curve, poor fit]"
CC(=O)N/N=C/c1cc(C(C)(C)C)cc(/C=N/NC(C)=O)c1O,"3.16 µM [falling, partial curve]","0.282 µM [falling, partial curve]"

# Seven structures out of the list, arranged by molecular weight, ascending.
SMILES,AC50 [1],AC50 [2]
CC(=O)N/N=C/c1cc(C(C)(C)C)cc(/C=N/NC(C)=O)c1O,"3.16 µM [falling, partial curve]","0.282 µM [falling, partial curve]"
Cc1nn(C)c(C(=O)Nc2ccc(Cl)c([N+](=O)[O-])c2)c1Cl,–,"20 µM [rising, single point]"
Cc1c(C(=O)Nc2cccc(C(F)(F)F)c2)sc2nc[nH]c(=O)c12,–,"0.355 µM [falling, full curve, poor fit]"
N#Cc1ccsc1NC(=O)CN(Cc1ccccc1)Cc1ccccc1,"35.5 µM [rising, single point]","35.5 µM [rising, single point]"
Cc1c(C(=O)NCc2cccnc2)oc2ccc(S(=O)(=O)N3CCCCC3)cc12,"12.6 µM [rising, partial curve]",–
COc1cccc(N/C(SCc2ccccc2F)=C(/C#N)C(=O)NCc2cccs2)c1,–,"14.1 µM [rising, single point]"
O=C(CCCNS(=O)(=O)c1ccc(Br)cc1)N1CC[C@@]2(O)CCCC[C@H]2C1,"4.47 µM [rising, partial curve, poor fit]",–
